The values below come from PMC7599698.

For assay [1], the target named is epidermal growth factor receptor (EGFR) (human (endogenous in MCF-7 and MDA-MB-231)) (UniProt P00533). The experiment in a line: proximity ligation; in situ PLA on MCF-7 cells treated with EGF together with CD99CRIII3.
Assay [2] shares this target. The assay is described as follows: proximity ligation; in situ PLA (Duolink) on fixed, Triton-permeabilised MCF-7 or MDA-MB-231 cells; EGF 25 ng/mL, 15 min (or time course), 37 °C; cells in part treated with cytochalasin D, siRNAs/shRNA, CA- or DN-plasmids (FAK, c-Src, Rac1, RhoA), CD99CRIII3 or CD99-Fc.

Results are given in words; binding and its absence hold for the method and conditions named. Binding seen in cells or lysates may run through a third protein. Some binding calls cover weakened binding; strength is not graded here.

B1: Gab1 (protein, UniProt Q13480 1-694)
chain: MSGGEVVCSGWLRKSPPEKKLKRYAWKRRWFVLRSGRLTGDPDVLEYYKNDHAKKPIRIIDLNLCQQVDAGLTFNKKEFENSYIFDINTIDRIFYLVADSEEEMNKWVRCICDICGFNPTEEDPVKPPGSSLQAPADLPLAINTAPPSTQADSSSATLPPPYQLINVPPHLETLGIQEDPQDYLLLINCQSKKPEPTRTHADSAKSTSSETDCNDNVPSHKNPASSQSKHGMNGFFQQQMIYDSPPSRAPSASVDSSLYNLPRSYSHDVLPKVSPSSTEADGELYVFNTPSGTSSVETQMRHVSISYDIPPTPGNTYQIPRTFPEGTLGQTSKLDTIPDIPPPRPPKPHPAHDRSPVETCSIPRTASDTDSSYCIPTAGMSPSRSNTISTVDLNKLRKDASSQDCYDIPRAFPSDRSSSLEGFHNHFKVKNVLTVGSVSSEELDENYVPMNPNSPPRQHSSSFTEPIQEANYVPMTPGTFDFSSFGMQVPPPAHMGFRSSPKTPPRRPVPVADCEPPPVDRNLKPDRKVKPAPLEIKPLPEWEELQAPVRSPITRSFARDSSRFPMSPRPDSVHSTTSSSDSHDSEENYVPMNPNLSSEDPNLFGSNSLDGGSSPMIKPKGDKQVEYLDLDLDSGKSTPPRKQKSSGSGSSVADERVDYVVVDQQKTLALKSTREAWTDGRQSTESETPAKSVK
Take B1: the figures for the binding entry in assay [1] and in assay [2] were “no binding (condition: cells co-treated with CD99CRIII3)” and “binds”, respectively.
